According to the supplement of paper PMC12889115:
The other results are listed elsewhere or left out. Values are raw readings; no control value is given beside them.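 Primary screen: polymyxin B was added at a level permeabilizing Salmonella outer membranes while sparing inner membranes. DMSO wells, both with and without polymyxin B, established maximum growth. Plate-to-plate variation meant each plate was ranked on its own, and the lowest-OD600 compounds were selected as hits.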

System: Salmonella enterica serovar Typhimurium SL1344
Test: bacterial growth OD600 after 18 h with compound and polymyxin B; higher = more bacterial growth (less inhibition)
Conditions: 50 µM, Mueller-Hinton broth

Row | SMILES | bacterial growth OD600 (polymyxin B 1 µg/mL) | bacterial growth OD600 (polymyxin B 0.75 µg/mL)
1 | CCN(Cc1nccn1C)C(=O)c1ccc(NC2CCC2)nc1 | 0.96 | 
2 | CC(C)N1CCC(N2CCCC(C(=O)NC3CCCC3)C2)CC1 (stereo not given) |  | 0.887
3 | CCOC(=O)C1(Cc2ccc(F)cc2F)CCCN(C(=O)c2ccc3c(c2)OCCO3)C1 (stereo not given) | 0.203 | 
4 | Cc1nc(C(=O)N(CC2CCN(Cc3ccccc3F)CC2)CC2CCCO2)cs1 (stereo not given) | 0.829 | 
5 | CC#CC(=O)NC1CCCc2c1cnn2-c1cccc(C)c1C (stereo not given) | 0.846 | 
6 | Cc1nc(N2CCC(C(=O)N3CC[C@@H]4CCCC[C@H]4C3)CC2)nc2cc(S(C)(=O)=O)ccc12 |  | -0.002
7 | CN(CC1CCN(CCc2ccc(Cl)cc2)CC1)C1CCC1 | 0.777 | 
8 | CCOC(=O)N1CCN(C(=O)C2CC23CCN(C(=O)C2CC(=O)c4ccccc42)CC3)CC1 (stereo not given) |  | 0.822
9 | Cc1cnc(C(=O)N2CCc3onc(-c4ccc5c(c4)OCO5)c3C2)cn1 |  | 0.832
10 | COc1cccc(-c2cc3c(c(OC)c2)OCCN(C(=O)C2CC2)C3)c1 |  | 0.578
11 | O=C(Cc1ccccc1)Nc1ccnn1C1CCN(Cc2ccccc2O)CC1 |  | 0.86
12 | Cc1nc(N2CCCCCCC2)ncc1C(C)NC(=O)CCC(N)=O (stereo not given) | 0.923 | 
13 | CCCn1ncc(CN2C[C@H]3OC(=O)N(CCc4ccccn4)[C@H]3C2)c1C |  | 0.821
14 | OCCC1CN(Cc2cccnc2)CCN1CC1CCCCC1 (stereo not given) | 0.952 | 
15 | CCN(Cc1ccccc1)C(=O)CCC1(Cc2ccc3ccccc3c2)CCC(=O)N1 (stereo not given) |  | 0.74
16 | Cc1c(C(C)NCc2cccc3nonc23)cnn1-c1ccc(F)cc1F (stereo not given) |  | 0.641
17 | CCc1ocnc1C(=O)N1CCC2(CCCN(Cc3ccccc3F)C2=O)C1 (stereo not given) | 0.787 | 
18 | CC#CC(=O)N1CCc2onc(-c3ccc(F)c(F)c3)c2C1 |  | 0.788
19 | Cc1cc(Cl)ccc1OC(C)C(=O)N1CCc2c(cnc(C)c2CNC(=O)c2ccccc2F)C1 (stereo not given) |  | 0.008
20 | CCOCC(O)CNC(=O)c1cc(OC)ccc1OC1CCN(C2CCCC2)CC1 (stereo not given) | 1.27 | 

Reformatted in CSV form: 2 of the compounds above.
Row,SMILES,bacterial growth OD600 (polymyxin B 1 µg/mL),bacterial growth OD600 (polymyxin B 0.75 µg/mL)
5,CC#CC(=O)NC1CCCc2c1cnn2-c1cccc(C)c1C (stereo not given),0.846,
7,CN(CC1CCN(CCc2ccc(Cl)cc2)CC1)C1CCC1,0.777,
